From article PMC5550480

Chains of the proteins cited; added tags and fusions are not shown.
UniProt Q13148, whole entry: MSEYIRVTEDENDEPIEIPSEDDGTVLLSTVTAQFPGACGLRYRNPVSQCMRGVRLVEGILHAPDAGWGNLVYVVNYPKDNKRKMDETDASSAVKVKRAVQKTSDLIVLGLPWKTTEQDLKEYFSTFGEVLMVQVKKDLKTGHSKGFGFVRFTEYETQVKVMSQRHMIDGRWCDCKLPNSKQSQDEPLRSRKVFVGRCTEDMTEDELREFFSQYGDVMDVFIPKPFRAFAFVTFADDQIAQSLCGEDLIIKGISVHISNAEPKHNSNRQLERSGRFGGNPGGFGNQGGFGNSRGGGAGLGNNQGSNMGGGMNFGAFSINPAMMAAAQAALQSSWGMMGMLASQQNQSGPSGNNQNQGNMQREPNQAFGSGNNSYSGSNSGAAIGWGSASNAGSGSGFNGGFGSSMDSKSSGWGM

Target: TF-TDP-43 (TF-TDP-43-FL) (Homo sapiens) (UniProt Q13148)
Assay: EMSA
Settings: 1 mM MgCl2; EMSA: 40 mM Tris-HCl pH 7.4, 30 mM KCl, 1 mM MgCl2, 0.01% IGEPAL CA-630, 1 mM DTT, 10 ug yeast tRNA, 10 ug BSA, 10 ng RNA, 200 ng protein in 10 ul; recombinant protein; residues 1-414; letters put together from the description

## GGGAGAUAGAUUGAAGCCAGUUGAUUAGGGUGCUUAGCUGUUAACUAAGCAGUCGUGGGUUUAAGUCCCAUUGGUCUAG [Var-R(Leu)]
  binding result: no binding

## GGGAGAGUUAAGAUGGCAGAGCCCGGUAAUCGCAUAAAACUUAAAACUUUACAGUCAGAGGUUCAAUUCCUCUUCUUAACA [mt-tRNALeu(UUR)]
  binding result: no binding

Construct, isoform or probe ends are uncertain for at least one entry. A negative result means that nothing was seen under these conditions. At least one verdict rests on a figure or table, not on a statement of the authors.
